Results are given in words; binding and its absence hold for the method and conditions named. In cells and extracts the contact can be indirect. Binding calls can cover weak binding; strength is not graded here.
Assays:
Assay in all cases: co-IP
[1] = molecular target: 3xFLAG-hTRPA1 C-terminal truncation Δ969 (human) (UniProt O75762)
[2] = molecular target: 3xFLAG-hTRPA1 C-terminal truncation Δ934 (human) (UniProt O75762)
[3] = molecular target: 3xFLAG-hTRPA1 C-terminal truncation Δ1011 (human) (UniProt O75762)

By UniProt entry, the sequences of proteins in these tests, tags left out. Where a name states a change or a piece, a line headed by the entry shows the natural chain unless it says otherwise.
UniProt O75762: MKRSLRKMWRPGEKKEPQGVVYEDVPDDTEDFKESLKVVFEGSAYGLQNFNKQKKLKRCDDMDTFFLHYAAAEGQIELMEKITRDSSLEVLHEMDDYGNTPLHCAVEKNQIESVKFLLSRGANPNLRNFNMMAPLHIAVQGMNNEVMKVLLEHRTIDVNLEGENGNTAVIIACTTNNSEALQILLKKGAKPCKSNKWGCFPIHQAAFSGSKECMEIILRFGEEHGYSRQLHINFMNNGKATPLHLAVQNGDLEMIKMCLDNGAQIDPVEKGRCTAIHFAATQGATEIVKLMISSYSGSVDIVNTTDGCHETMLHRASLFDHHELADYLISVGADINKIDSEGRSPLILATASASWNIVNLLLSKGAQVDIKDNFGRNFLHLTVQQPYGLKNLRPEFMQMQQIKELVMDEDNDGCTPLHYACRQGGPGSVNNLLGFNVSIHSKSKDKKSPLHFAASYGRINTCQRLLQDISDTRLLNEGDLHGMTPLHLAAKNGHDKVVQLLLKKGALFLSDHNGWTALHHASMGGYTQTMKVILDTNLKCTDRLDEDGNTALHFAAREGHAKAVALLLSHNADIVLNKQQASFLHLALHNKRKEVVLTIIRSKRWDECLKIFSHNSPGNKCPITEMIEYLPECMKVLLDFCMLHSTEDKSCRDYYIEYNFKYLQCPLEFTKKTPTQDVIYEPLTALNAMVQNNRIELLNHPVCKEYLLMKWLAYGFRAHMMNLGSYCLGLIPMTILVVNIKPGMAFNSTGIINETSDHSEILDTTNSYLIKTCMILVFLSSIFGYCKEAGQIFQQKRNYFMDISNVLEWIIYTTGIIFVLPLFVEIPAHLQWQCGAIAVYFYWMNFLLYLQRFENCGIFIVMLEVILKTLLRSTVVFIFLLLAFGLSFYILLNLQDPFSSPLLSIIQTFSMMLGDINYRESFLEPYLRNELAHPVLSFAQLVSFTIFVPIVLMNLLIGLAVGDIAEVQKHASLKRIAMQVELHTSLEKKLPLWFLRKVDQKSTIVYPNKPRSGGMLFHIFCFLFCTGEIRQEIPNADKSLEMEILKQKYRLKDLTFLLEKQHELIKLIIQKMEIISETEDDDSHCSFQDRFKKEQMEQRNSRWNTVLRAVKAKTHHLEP

binding [1]: binds
binding [2]: binds
binding [3]: binds
Substance: MBP-tagged WT human TRPA1 (from UniProt O75762 1-1119)
